Measured values as given in article PMC12373997.
These are yes or no findings as the source states them, for the method shown. Binding seen in cells or lysates may run through a third protein. A yes stands for co-enrichment or nearness to the bait. Other partners may have been found. Where a sequence is shown, tags or fusion partners need not be part of it.

Sequences of proteins named here, by UniProt entry; tags and fusion partners are left off.
UniProt Q99871: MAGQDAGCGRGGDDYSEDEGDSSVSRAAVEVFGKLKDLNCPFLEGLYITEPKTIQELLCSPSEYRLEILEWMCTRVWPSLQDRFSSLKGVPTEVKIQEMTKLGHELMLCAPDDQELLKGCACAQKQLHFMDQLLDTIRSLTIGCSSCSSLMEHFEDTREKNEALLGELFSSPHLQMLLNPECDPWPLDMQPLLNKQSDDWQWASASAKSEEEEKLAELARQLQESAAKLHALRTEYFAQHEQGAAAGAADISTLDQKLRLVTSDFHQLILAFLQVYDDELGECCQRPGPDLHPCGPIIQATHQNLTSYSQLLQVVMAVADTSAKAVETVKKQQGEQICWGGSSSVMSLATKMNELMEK

Molecular target: T1, H. sapiens HAUS8-HIS8, N-clamp fragment (H. sapiens) (UniProt Q9BT25)
T1 sequence: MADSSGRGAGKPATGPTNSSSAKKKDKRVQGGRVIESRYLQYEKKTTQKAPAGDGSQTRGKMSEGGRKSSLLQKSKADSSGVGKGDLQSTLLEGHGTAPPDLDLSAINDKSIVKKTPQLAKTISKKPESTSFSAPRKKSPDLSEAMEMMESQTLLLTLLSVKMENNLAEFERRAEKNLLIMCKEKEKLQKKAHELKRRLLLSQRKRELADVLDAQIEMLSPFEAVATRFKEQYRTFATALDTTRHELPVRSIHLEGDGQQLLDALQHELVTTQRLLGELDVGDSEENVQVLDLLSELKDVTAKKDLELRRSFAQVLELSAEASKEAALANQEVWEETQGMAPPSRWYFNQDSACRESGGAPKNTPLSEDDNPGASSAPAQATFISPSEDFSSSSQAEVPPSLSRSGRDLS
Experiment: co-expression and co-purification (His-affinity, SEC, anion exchange), checked by mass spectrometry and negative stain EM; four subunits co-expressed in E. coli; Ni-NTA capture through HAUS7-EGFP-HIS8 and HAUS8-HIS8 from the lysate, Superose 6 SEC, Capto HiRes Q

binding: binds
Substance: H. sapiens HAUS7-EGFP-HIS8, N-clamp fragment (from UniProt Q99871 1-358) (domain or fragment)
